Results on 5 molecules are retold here after patent US20260297165A1, “COMPOSITIONS AND METHODS FOR EXPRESSING THERAPEUTICS” (priority 2023, published 2026).

This data set has as its system Human EXPI293 suspension cells. As to the kind of experiment: SDS-PAGE and Western blot of membrane-bound CD59 (mCD59) in lysate of transfected cells. Type of data set: cell-based. To be noted: cell lysate, day 2. (In general: Immunoblotting shows a protein as a band on a membrane.)

B1: Vector GTM: wild-type membrane-bound CD59 (mCD59), SEQ ID NO: 43 (protein, UniProt P13987 26-102, looked up)
CD59 glycoprotein: LQCYNCPNPTADCKTAVNCSSDFDACLITKAGLQVYNKCWKFEHCNFNDVTTRLRENELTYYCCKKDLCNFNEQLEN
As for B1, the mCD59 expression result was “expressed”.

B2: Vector GTR: Geneart-optimized mCD59 (protein, UniProt P13987 26-102, looked up)
CD59 glycoprotein: B1 CD59 glycoprotein
modifications: codon-optimized expression vector
notes: Geneart-optimized mCD59
Regarding B2, the mCD59 expression result is given as “expressed”.

B3: Vector GTP: Snapgene-optimized mCD59, SEQ ID NO: 43 (protein, UniProt O55186 24-96, looked up)
CD59A glycoprotein: LTCYHCFQPVVSSCNMNSTCSPDQDSCLYAVAGMQVYQRCWKQSDCHGEIIMDQLEETKLKFRCCQFNLCNKS
In the case of B3, the mCD59 expression entry is listed as “expressed”.

B4: Vector GTQ: Jcat-optimized mCD59 (protein, UniProt O55186 24-96, looked up)
CD59A glycoprotein: B3 CD59A glycoprotein
Turning to B4, the mCD59 expression entry is “expressed”.

B5: Vector GAT: Genscript-optimized mCD59 (protein, UniProt O55186 24-96, looked up)
CD59A glycoprotein: B3 CD59A glycoprotein
Regarding B5, the mCD59 expression entry is recorded as “expressed”.
